Test results taken from publication PMC8324300.

Legend:
[1] = molecular target: T1, GST-CHMP7 393-CT ES-RR (human) (UniProt Q8WUX9); experiment: pull-down; GST-tagged CHMP7 fragments and YFP-VPS4^MIT co-expressed in 293T cells; lysis in 150 mM NaCl, 50 mM Tris-Cl pH 7.4, 1% NP-40; capture on glutathione sepharose for 2 hr; blots with anti-GST and anti-GFP
T1 sequence: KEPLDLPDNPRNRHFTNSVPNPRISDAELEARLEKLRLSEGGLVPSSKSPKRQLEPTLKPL

[2] = molecular target: T2, GST-CHMP7 393-CT (human) (UniProt Q8WUX9); experiment: as above
T2 sequence: T1 sequence with R32E, R37S

With “YFP-VPS4^MIT (VPS4 MIT domain, residues 1-122) (domain or fragment)” the binding [1] was “binds” and the binding [2] was “no binding”.

Changes are numbered by the printed parent chain. Results are given in words; binding and its absence hold for the method and conditions named. Binding seen in cells or lysates may run through a third protein. For some assays here: Binding can be weak; no strength is given. Tags and fused reporters may be left off the sequences shown.
